This is an account of results in article doi:10.1101/2023.05.24.542039.

Sequences of proteins named here, by UniProt entry; tags and fusion partners are left off.
UniProt O00482: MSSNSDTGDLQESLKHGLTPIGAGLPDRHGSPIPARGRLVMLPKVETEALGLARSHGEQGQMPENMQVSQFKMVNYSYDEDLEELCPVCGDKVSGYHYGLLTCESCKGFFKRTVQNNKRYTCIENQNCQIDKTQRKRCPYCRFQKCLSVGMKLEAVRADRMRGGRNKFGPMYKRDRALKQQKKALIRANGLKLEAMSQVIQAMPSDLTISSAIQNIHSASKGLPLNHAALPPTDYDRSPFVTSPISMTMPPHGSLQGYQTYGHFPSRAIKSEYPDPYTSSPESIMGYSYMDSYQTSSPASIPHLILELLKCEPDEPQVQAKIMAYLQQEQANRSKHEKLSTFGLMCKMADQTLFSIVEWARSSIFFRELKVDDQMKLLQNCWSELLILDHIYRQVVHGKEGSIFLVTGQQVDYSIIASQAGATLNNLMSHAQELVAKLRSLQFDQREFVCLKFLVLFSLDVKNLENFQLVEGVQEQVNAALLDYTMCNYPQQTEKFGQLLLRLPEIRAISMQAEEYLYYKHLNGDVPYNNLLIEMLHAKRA
UniProt Q04206: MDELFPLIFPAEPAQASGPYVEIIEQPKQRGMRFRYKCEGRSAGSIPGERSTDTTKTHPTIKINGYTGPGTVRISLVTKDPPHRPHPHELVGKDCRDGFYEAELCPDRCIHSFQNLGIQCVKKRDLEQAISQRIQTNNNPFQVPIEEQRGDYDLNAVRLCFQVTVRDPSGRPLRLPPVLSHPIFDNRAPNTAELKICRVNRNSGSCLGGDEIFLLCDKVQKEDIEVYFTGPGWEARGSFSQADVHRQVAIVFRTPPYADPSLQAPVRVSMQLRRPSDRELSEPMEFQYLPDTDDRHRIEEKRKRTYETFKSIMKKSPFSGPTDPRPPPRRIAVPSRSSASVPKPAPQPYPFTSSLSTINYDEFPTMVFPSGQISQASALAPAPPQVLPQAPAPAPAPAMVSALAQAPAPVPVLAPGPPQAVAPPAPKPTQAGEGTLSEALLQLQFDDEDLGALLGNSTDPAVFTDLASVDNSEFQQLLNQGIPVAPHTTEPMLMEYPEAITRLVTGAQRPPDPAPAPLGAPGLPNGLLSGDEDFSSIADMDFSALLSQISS

The experiment concerns the target human Flag-tagged LRH-1 (Liver Receptor Homolog-1, NR5A2) (human) (UniProt O00482). Description: co-IP.

No constants are given. Whether binding was seen depends on the method and setting. Binding seen in cells or lysates may run through a third protein. Some entries that bind do so weakly or less than the wild type.

With “NF-kB subunit RelA (from UniProt Q04206 1-551)”, the binding result was “binds”.
